Primary screen of a compound library

By UniProt entry, the sequences of proteins in these tests, tags left out. Residues count along the entry.
UniProt P9WFT3, whole entry: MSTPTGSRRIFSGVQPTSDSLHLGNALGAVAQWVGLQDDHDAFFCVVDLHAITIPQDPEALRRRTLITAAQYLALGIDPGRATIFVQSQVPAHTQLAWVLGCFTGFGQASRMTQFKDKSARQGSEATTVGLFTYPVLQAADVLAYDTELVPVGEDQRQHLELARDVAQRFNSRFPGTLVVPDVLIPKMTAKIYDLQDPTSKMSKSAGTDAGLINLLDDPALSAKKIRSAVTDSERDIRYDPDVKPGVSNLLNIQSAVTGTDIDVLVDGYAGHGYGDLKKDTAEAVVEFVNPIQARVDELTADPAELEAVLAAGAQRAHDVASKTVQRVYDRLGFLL
UniProt I6X8D2, whole entry: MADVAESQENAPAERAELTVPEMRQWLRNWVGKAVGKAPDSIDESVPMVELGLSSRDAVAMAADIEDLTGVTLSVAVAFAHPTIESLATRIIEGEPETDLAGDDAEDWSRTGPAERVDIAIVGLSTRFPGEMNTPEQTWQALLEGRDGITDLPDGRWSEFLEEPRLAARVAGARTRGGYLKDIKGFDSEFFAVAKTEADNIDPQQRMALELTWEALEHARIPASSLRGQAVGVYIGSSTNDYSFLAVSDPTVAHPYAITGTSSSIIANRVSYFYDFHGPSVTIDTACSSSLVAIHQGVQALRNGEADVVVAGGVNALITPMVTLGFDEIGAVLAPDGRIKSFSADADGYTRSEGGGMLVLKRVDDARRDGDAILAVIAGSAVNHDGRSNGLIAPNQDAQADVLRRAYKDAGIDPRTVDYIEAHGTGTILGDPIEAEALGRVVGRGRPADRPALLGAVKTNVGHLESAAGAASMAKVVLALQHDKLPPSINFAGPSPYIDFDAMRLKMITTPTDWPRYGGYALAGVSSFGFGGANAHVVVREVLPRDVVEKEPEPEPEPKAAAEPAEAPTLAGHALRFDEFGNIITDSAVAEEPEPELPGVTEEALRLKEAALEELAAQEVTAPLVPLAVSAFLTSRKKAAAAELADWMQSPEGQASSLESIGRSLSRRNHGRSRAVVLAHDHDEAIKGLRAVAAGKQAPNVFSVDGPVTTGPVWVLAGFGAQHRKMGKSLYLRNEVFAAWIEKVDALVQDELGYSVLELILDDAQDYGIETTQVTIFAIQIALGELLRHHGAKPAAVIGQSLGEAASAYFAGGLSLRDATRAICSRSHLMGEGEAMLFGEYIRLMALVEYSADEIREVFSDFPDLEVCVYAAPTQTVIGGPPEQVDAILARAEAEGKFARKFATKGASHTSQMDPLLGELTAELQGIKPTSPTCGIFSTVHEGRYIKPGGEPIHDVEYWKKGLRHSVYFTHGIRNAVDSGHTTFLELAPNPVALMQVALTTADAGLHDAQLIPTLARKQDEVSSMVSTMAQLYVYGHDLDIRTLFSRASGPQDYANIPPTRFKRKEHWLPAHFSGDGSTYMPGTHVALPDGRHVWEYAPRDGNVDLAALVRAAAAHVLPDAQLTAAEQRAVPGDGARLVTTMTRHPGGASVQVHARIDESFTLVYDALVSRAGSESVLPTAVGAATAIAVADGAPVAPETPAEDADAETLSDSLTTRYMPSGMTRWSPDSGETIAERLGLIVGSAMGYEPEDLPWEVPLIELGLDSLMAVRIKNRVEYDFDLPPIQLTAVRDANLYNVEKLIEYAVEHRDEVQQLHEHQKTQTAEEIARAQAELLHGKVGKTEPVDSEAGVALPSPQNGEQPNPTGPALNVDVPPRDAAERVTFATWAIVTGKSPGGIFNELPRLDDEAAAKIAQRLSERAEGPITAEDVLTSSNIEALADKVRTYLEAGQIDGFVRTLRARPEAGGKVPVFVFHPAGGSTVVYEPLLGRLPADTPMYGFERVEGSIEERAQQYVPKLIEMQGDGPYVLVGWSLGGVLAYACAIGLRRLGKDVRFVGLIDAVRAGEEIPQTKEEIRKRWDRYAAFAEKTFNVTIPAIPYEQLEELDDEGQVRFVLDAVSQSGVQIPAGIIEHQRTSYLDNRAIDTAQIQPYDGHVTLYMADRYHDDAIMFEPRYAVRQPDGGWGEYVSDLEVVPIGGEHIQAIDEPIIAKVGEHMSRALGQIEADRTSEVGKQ
UniProt A4I591, 1-473: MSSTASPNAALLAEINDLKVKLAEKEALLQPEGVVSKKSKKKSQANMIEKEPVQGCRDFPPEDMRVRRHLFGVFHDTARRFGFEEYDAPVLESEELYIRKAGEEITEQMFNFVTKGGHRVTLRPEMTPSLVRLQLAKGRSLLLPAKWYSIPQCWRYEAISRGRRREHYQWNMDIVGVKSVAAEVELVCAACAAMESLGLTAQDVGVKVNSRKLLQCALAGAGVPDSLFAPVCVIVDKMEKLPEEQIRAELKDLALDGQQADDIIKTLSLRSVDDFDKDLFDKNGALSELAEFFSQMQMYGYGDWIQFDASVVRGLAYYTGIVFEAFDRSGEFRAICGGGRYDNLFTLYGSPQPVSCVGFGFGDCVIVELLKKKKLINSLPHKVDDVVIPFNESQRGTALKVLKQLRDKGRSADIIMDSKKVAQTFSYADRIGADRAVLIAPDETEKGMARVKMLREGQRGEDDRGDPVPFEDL
UniProt Q4DA54, 1-478: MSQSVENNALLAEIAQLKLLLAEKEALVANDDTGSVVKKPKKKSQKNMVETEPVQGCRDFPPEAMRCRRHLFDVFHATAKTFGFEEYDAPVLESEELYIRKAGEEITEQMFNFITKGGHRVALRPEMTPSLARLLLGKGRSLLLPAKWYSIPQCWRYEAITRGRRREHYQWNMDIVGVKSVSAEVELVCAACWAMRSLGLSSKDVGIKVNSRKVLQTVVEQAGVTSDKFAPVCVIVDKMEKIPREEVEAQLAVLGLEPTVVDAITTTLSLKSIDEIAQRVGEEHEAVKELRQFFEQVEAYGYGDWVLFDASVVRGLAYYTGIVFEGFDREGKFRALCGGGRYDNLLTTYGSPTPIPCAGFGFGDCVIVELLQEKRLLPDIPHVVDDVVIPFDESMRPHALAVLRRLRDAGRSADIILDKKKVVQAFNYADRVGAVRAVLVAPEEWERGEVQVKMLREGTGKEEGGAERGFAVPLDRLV

Measurements from “University of Dundee, Small-Polar-MMV Screening Library” (2021), ChEMBL document CHEMBL3988442.

Each number is a percent effect as filed. The controls that fix the scale are not given in the record; negative values are as filed. The compounds are a random part of those screened. A dash means the value is not listed here; it may have been measured.

MtTrpRS: 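Enzyme assay of tryptophanyl-tRNA synthetase; the read-out is not stated. Target: Tryptophan-tRNA ligase, Mycobacterium tuberculosis (UniProt P9WFT3). Concentration: 10 µM. Higher most likely means stronger inhibition; the record gives no direction and few retests gave an IC50. Of about 65,000 compounds tested this way, about 64 (0.098%) reached 50% or more in at least one test.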
Pks13 thioesterase: 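Polyketide synthase Pks13, Mycobacterium tuberculosis (UniProt I6X8D2). Enzyme assay of the thioesterase domain of polyketide synthase 13; the read-out is not stated. Compounds at 30 µM. The record gives no direction; the compounds picked for IC50 retests had high values, so higher reads as stronger inhibition. Size under these conditions: about 67,000 compounds, about 300 of them at 50% or above in at least one test.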
LiHisRS: 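Histidine-tRNA ligase, Leishmania infantum (UniProt A4I591). Enzyme assay of histidyl-tRNA synthetase; the read-out is not stated. Tested at 30 µM. Direction is inferred from retests: higher values go with stronger inhibition. The assay is labelled LdHisRS but filed under L. infantum. About 69,000 compounds were tested under these conditions; 0.6% (about 410) showed 50% or more at least once.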
TcHisRS: 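Enzyme assay of histidyl-tRNA synthetase; the read-out is not stated. Target: Histidine-tRNA ligase, Trypanosoma cruzi CL Brener (UniProt Q4DA54). Tested at 30 µM. Higher reads as stronger inhibition (inferred: compounds with an IC50 in retests scored well above the rest). Size under these conditions: about 69,000 compounds, about 31 of them at 50% or above in at least one test.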

O=C(c1ccnc(C2CCNCC2)c1)N1CCCC1 read MtTrpRS: 0.8799%; Pks13 thioesterase: -13.94%; LiHisRS: 24.16%; TcHisRS: 0.8571%.
Cc1cc(C2CCCN(C(=O)c3cnn(C)c3)C2)ccn1 (stereo not drawn) read MtTrpRS: 1.421%; Pks13 thioesterase: -44.52%; LiHisRS: 19.44%; TcHisRS: 0.5405%.
Cc1cnc(CN2CCOC(Cn3nc(C)cc3C)C2)cn1 (stereo not drawn) read MtTrpRS: 9.36%; LiHisRS: 16.51%; TcHisRS: 6.471%.
CN1CCN(C2COC3(CCN(c4ccc(C#N)cc4)CC3)C2)CC1 (stereo not drawn) read Pks13 thioesterase: -0.3851%; LiHisRS: 0%; TcHisRS: 3.333%.
CN(C)C(=O)C1(CCCc2ccccn2)CCN1Cc1nccn1C (stereo not drawn) read MtTrpRS: -5.426%; Pks13 thioesterase: 10.71%; LiHisRS: 12.86%; TcHisRS: 8.046%.
Cc1noc(C)c1C(=O)N1CCC(c2cc3cnccc3[nH]2)CC1 read MtTrpRS: 17.3%; Pks13 thioesterase: -1.293%; LiHisRS: 5.594%; TcHisRS: 2.825%.
COc1ccc(NC(=O)CCC2CCCN(Cc3ncon3)C2)c(C)c1 (stereo not drawn) read MtTrpRS: -5.151%; Pks13 thioesterase: -10.24%; LiHisRS: 10.68%; TcHisRS: 6.224%.
CC1CCN(CCCNS(=O)(=O)c2cccc(F)c2)CC1 read MtTrpRS: 2.9%; Pks13 thioesterase: -8.433%; LiHisRS: 10.38%; TcHisRS: 0%.
CCCC(C#N)NC(=O)c1cc(Br)c2c(c1)OCCO2 (stereo not drawn) read MtTrpRS: -2.443%; Pks13 thioesterase: -3.471%; LiHisRS: 8.621%; TcHisRS: 2.825%.
O=C(c1ccncc1)N1CCCC(C2=Nc3ccccc3S(=O)(=O)N2)C1 (stereo not drawn) read MtTrpRS: -3.068%; Pks13 thioesterase: -4.232%; LiHisRS: 13.99%; TcHisRS: 5.085%.
Cc1ncccc1-c1cc2cccnc2n1CCCNC(=O)C1CC1 read MtTrpRS: -2.467%; Pks13 thioesterase: 1.237%; LiHisRS: 12.86%; TcHisRS: 7.28%.
OC1(CN2CCCC2)COCCN(c2cc(C(F)(F)F)ccn2)C1 (stereo not drawn) read MtTrpRS: -5.795%; Pks13 thioesterase: -16.5%; LiHisRS: -4.196%; TcHisRS: 3.483%.
O=C1CCC2(CCN(CC[C@@H](O)c3ccccc3)CC2)CN1CC1CC1 read MtTrpRS: -7.621%; Pks13 thioesterase: -4.423%; LiHisRS: 11.5%; TcHisRS: 10.4%.
O=C(CN1CCCc2c(F)cc(Br)cc21)N1CCCC1 read MtTrpRS: 1.111%; Pks13 thioesterase: -11.08%; LiHisRS: -6.667%; TcHisRS: 3.571%.
COc1ccccc1CC(=O)N1CCC(NCc2ccccn2)CC1 read MtTrpRS: 24.48%; Pks13 thioesterase: -29.03%; LiHisRS: 14.68%; TcHisRS: 4.373%.
Cc1ccc(-c2noc(CN3CCn4c(nnc4C4CC4)C3)n2)cc1 read MtTrpRS: -1.337%; Pks13 thioesterase: -14.96%; LiHisRS: 6.481%; TcHisRS: 6.745%.
O=C(c1ccco1)N1CCN(Cc2nc(C3CC3)no2)CC1 read MtTrpRS: 3.16%; Pks13 thioesterase: -14.97%; LiHisRS: 6.4%; TcHisRS: 1.961%.
CCc1nnc(CN2CCCC(c3cc(C(N)=O)[nH]n3)C2)o1 (stereo not drawn) read MtTrpRS: -8.55%; Pks13 thioesterase: -1.711%; LiHisRS: 1.786%; TcHisRS: 4.07%.
CCCn1c(SCC(N)=O)nnc1-c1csc2c1CCCC2 read MtTrpRS: 0.9709%; Pks13 thioesterase: 8.975%; LiHisRS: 9.89%; TcHisRS: 3.96%.
CN(C)CCn1c2c(ccc1=O)CCN(Cc1ccncc1)CC2 read Pks13 thioesterase: 7.473%; LiHisRS: 13.46%; TcHisRS: 9.497%.
CCN(CC(C)C#N)C(=O)c1cccc(COc2ccc(C)nc2)c1 (stereo not drawn) read MtTrpRS: -3.183%; Pks13 thioesterase: -37.64%; LiHisRS: 5.714%; TcHisRS: 7.216%.
Cc1nc(C2CCCN2CC(=O)Nc2c(C)nn(C)c2C)no1 (stereo not drawn) read MtTrpRS: -4.15%; Pks13 thioesterase: -12.24%; LiHisRS: 11.29%; TcHisRS: 6.186%.
O=C(CCn1cncn1)NCC1CCCC1 read MtTrpRS: -8.14%; LiHisRS: 12.82%; TcHisRS: -2.299%.
O=C(Nc1cccnc1)C1CCN(c2cc(-n3ccnc3)ncn2)CC1 read MtTrpRS: -4.331%; Pks13 thioesterase: -0.5833%; LiHisRS: 12.17%; TcHisRS: 7.216%.
CCC(Oc1ccccc1)c1nn2c(CN(CC)CC)nnc2s1 (stereo not drawn) read MtTrpRS: 2.692%; Pks13 thioesterase: -10.53%; LiHisRS: 19.54%; TcHisRS: 7.216%.
CCNC(=O)c1ccc2ccc(N(CC)CC)n2c1 read MtTrpRS: 5.523%; Pks13 thioesterase: -14.39%; LiHisRS: 27.35%; TcHisRS: 33.13%.
CCn1nnc(NCc2cc(Cl)cc(Cl)c2OC)n1 read MtTrpRS: -4.032%; Pks13 thioesterase: -4.807%; LiHisRS: -9.524%; TcHisRS: 1.98%.
CCOc1ccc(Cl)cc1CCNC(=O)c1ccc(=O)n(C)c1 read MtTrpRS: 1.224%; Pks13 thioesterase: -12.52%; LiHisRS: 14.16%; TcHisRS: 0.8929%.
CC(C)[C@H]1CN(CC2CCC2)C[C@@H]1NC(=O)c1ccc(=O)[nH]c1 read MtTrpRS: 1.861%; Pks13 thioesterase: -14.24%; LiHisRS: 16.13%; TcHisRS: 4.167%.
O=C(c1ccc(N2CCCC2)nn1)N1CCCC(n2ccnc2)C1 (stereo not drawn) read MtTrpRS: -0.8839%; Pks13 thioesterase: -21.54%; LiHisRS: 9.649%; TcHisRS: 4.046%.
CC(C)n1cc(N2Cc3nc(N4CCOCC4)ncc3C2=O)cn1 read MtTrpRS: 2.72%; Pks13 thioesterase: -7.857%; LiHisRS: 8.621%; TcHisRS: 6.087%.
Cc1ccc(CN2CCOC3(CCN(C(=O)C4CC=CC4)CC3)C2)cc1 read MtTrpRS: -4.017%; Pks13 thioesterase: -26.66%; LiHisRS: 22.81%; TcHisRS: 6.452%.

The first 3 entries again:

| Compound | MtTrpRS | Pks13 thioesterase | LiHisRS | TcHisRS |
|---|---|---|---|---|
| `O=C(c1ccnc(C2CCNCC2)c1)N1CCCC1` | 0.8799 | -13.94 | 24.16 | 0.8571 |
| `Cc1cc(C2CCCN(C(=O)c3cnn(C)c3)C2)ccn1` (stereo not drawn) | 1.421 | -44.52 | 19.44 | 0.5405 |
| `Cc1cnc(CN2CCOC(Cn3nc(C)cc3C)C2)cn1` (stereo not drawn) | 9.36 | - | 16.51 | 6.471 |